In this assay the target is cmCTLA-4 (Macaca fascicularis) (UniProt G7PL88). The assay is described as follows: ELISA, luminescence: antigen coated, antibody titrated [contd.) E]. On the technique in general: An ELISA detects its analyte on a solid surface through an enzyme-linked reagent.

The chains behind the UniProt entries cited, without tags or fusion partners. Where a name states a change or a piece, a line headed by the entry shows the natural chain unless it says otherwise. A line that says so, or that is headed by a name, gives the form on record, which may keep a tag or linker.
cmCTLA-4 (G7PL88, form named): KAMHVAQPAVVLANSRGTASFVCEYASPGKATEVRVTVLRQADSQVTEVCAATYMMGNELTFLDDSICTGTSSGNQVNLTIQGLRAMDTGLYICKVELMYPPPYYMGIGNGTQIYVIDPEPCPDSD

The text below walks through data of patent US20240374719A1.

These are yes or no findings as the source states them, for the method shown. Some entries that bind do so weakly or less than the wild type.

B1: 4-E03 hIgG1 (anti-human CTLA-4, human IgG1) (antibody, V domains shown)
VH: EVQLLESGGGLVQPGGSLRLSCAASGFTFSDYYMSWVRQAPGKGLEWVSGISWSSRDKGYADSVKGRFTISRDNSKNTLYLQMNSLRAEDTAVYYCTTDLARYWGQGTLVTVSS
VL: QSVLTQPPSASGTPGQRVTISCTGSSSNIGAGYDVHWYQQLPGTAPKLLIYGNDNRPSGVPDRFSGSKSGTSASLAISGLRSEDEADYYCAVWDDSLNGVVFGGGTKLTVLG
B1: the binding result is listed as “binds”.
